Measured values from article PMC10163288.
This is one part of the list.

B1: il10ra_site1_normal_mot_HHH_b2_00984_000000042_0001_1_20_H_._HHH_b1_00314_0001_0000400042_0000001_0 (protein)
chain: SSSSSDEELRQEIEELLRELEEAKSSEELAQVALRVLRLIYELKDKELLQELWEIIKRLFSSSSS
B2: il10ra_site1_normal_mot_HHH_b2_03330_000000161_0001_1_19_H_._HHH_b1_00960_0001_0000200016_0000002_0 (protein)
chain: SSSSSDREFHEFWRVFRELAKVDDPEEREELLEILEELAKEAGDPTLRAVVRLLKRKLKSSSSSS
B3: il10ra_site1_normal_mot_2c1a291787c6f40772924d4e9068d803_0001_af2_000000187_0001_34_48_H_._ems_3hM_441_0001_0000400013_0000001_0_af2pred_dldesign_0_af2pred (protein)
chain: NEELKKEIADLYHELSQLLKDDPELQKEVFELACQAYKAINEGNLEEAEALTEKLKAKLEELKKS
B4: il10ra_site1_normal_mot_8756ee2cf497b5429c717dfc0c0bcfd6_0001_000000186_0001_1_13_H_._HHH_b1_04937_af2_0001_0000500020_0000001_0 (protein)
chain: SSSSTEAEEVAELIREAAKLEREGDPEEAKEVLEEAREIAEENNNDVALWQVEYLLRKLNSSSSS
B5: il10ra_site1_normal_mot_HHH_b2_01235_000000294_0001_1_18_H_._HHH_b2_07943_0001_0000200033_0000002_0 (protein)
chain: SSSSSEESQRLYELFRRASELDFEGDEEEAREVLEEAVEIAREAGNPVLLFQAEWFLERVSSSSS
B6: il10ra_site1_sap_23_mot_HHH_b2_08144_af2_000000046_0001_38_52_H_._HHH_b1_01148_0001_0000400014_0000001_0_0001 (protein)
chain: SSSSSSRAERQQVEALLYFAEQANNPDARRIMLERAEELAEELNDPELERLVEEVRERLESSSSS
B7: il10ra_site1_normal_mot_e1dd4851c59bc1cdde016f988f6856bd_0001_1_000000200_0001_16_31_H_._HHH_b1_07157_0001_0000400044_0000001_0_af2pred_0001 (protein)
chain: SSSSSDEEARIKFIVLALVHTFNLSEEQEEELERLAEELLRRGFSAEEIAKILYHKARELGSSSS
B8: il10ra_site1_sap_8_mot_HHH_b2_02386_000000054_0001_1_20_H_._HHH_b1_03230_0001_0000200026_0000002_0_0001 (protein)
chain: SSSSDEERQELIEALKRLARLLIRGNEEEVKELLEHVEELAKELNDERTRRILEDLKRALSSSSS
B9: il10ra_site1_normal_mot_ems_3hM_3349_af2_000000045_0001_25_42_H_._c4dd8cf0dac887b0ed015202f8c0b8fc_0001_af2_0001_0000100005_0000002_0 (protein)
chain: SVEEKLEELLRELGVPPEVIRLIELALRLQLEQNGDPRQAERALLAWLRLLRSPEAKLVIEALER
B10: il10ra_site1_normal_mot_HHH_b1_02397_af2_000000085_0001_39_57_H_._HHH_b2_04747_af2_0001_0000300012_0000002_0 (protein)
chain: SSSSSSDEEERLEKLLEELEKAKTDEEIARIVQEALRIAFRLRDQEALQELLELFRELLSSSSSS
B11: il10ra_site1_normal_mot_e1dd4851c59bc1cdde016f988f6856bd_0001_1_000000200_0001_16_31_H_._ems_3hM_201_0001_0000600034_0000002_0 (protein)
chain: NEEQERAEDALRASARFLEEANVDPRLVELMIQFQARALQHLIQNPENQEFVQEVAEKLIEEVCS
B12: il10ra_site1_normal_mot_HHH_b2_07521_000000141_0001_20_37_H_._HHH_b2_02707_0001_0000300027_0000001_0_af2pred_0001 (protein)
chain: SSSSNAEEAVRLALRAAKHAVRANDPERVRLALKMARALAESANDEEAQRLVEEVAEEIEKSSSS
B13: il10ra_site1_sap_16_mot_HHH_b2_00984_000000042_0001_1_20_H_._HHH_b1_03130_af2_0001_0000100010_0000001_0_0001_af2pred_0001 (protein)
chain: SSSSDERERRAVELLLESAKRIPDPELAEAALRLAREAAELLGDPELEQLVEEVEEELEENSSSS
B14: il10ra_site1_sap_15_mot_HHH_b2_00440_000000044_0001_22_38_H_._HHH_b2_01428_0001_0000200021_0000001_0_0001 (protein)
chain: SSSSDAEEYIRLTKRFIEWLLKEGDEEAARYFLRAARDIAEKEGDPEVRELVEEIEELIDSSSSS
B15: il10ra_site1_sap_23_mot_HHH_b2_06321_af2_000000133_0001_42_55_H_._HHH_b1_02866_0001_0000400038_0000001_1_0001 (protein)
chain: SSSSNEERRRAMELAERITELDQEGNKEEARELVEELEQLAKELNNWAFEFVARLLERIINSSSS
B16: il10ra_site1_normal_mot_HHH_b2_03220_af2_000000223_0001_23_40_H_._HHH_b2_00965_0001_0000200011_0000001_0 (protein)
chain: SSSSSTEEREEVWELIREALHIDDPEERRRVLEEALELAEELNNLLLQFSIRLALRDVGSSSSSS
B17: il10ra_site1_normal_mot_HHH_b2_00277_af2_000000172_0001_1_17_H_._HHH_b1_06276_0001_0000100006_0000001_0_af2pred_0001 (protein)
chain: SSSSSSTEEEVEELLEEAKRIEDPEERSYVLTEAWALAYRLNDPELEREIEEVAKRLTSSSSSSS
B18: il10ra_site1_normal_mot_HHH_b2_03183_af2_000000055_0001_40_56_H_._HHH_b2_02326_0001_0000600061_0000001_0 (protein)
chain: SSSSDEQELAEALVRLIRQAIEAGDERSAEILLLSLEILAEELNDPELRELLEELQELLEGSSSS
B19: il10ra_site1_normal_mot_HHH_b2_07145_000000158_0001_24_40_H_._HHH_b1_06041_0001_0000300053_0000001_0 (protein)
chain: SSSSEEVFEFVKRFIERIVELLRNGDPEEAEKLLEEVKEFAEENNNPALLFSIRHLERVVNSSSS
B20: il10ra_site1_normal_mot_HHH_b1_07278_000000273_0001_1_20_H_._637cc8c69280e3cc9e9840e2bee06d3a_0001_1_0001_0000500007_0000001_0 (protein)
chain: SVEELLEELEKRNYIFVRSLRILLEQLREDPNDEAVREALRHLERIAKELGDPLLEEILELIIEG
B21: il10ra_site1_sap_22_mot_9c3e5e2d2b9ffb70dc788f52fbfab6d5_0001_1_000000198_0001_1_14_H_._HHH_b1_02251_0001_0000200020_0000002_0_0001 (protein)
chain: SSSSSREERLEKLLEELEEALERGDWERAVRLAQEAVRLAFRANDPEFFQELWELFKRAVSSSSS
B22: il10ra_site1_normal_mot_HHH_b1_05056_000000217_0001_1_20_H_._HHH_b2_05193_0001_0000100002_0000001_0 (protein)
chain: SSSSSDEEEVERLLREAEERRQEGDRERVAELLLEALRIAFETNNKEALQLIWEVVRRLASSSSS
B23: il10ra_site1_sap_16_mot_HHH_b2_00943_af2_000000149_0001_1_17_H_._HHH_b1_05639_0001_0000200008_0000001_0_0001 (protein)
chain: SSSSTEELFEALERLAELDREGDEEEFEELVEEAERLAKENGDRLFLIQIEFLLEIFRKAHSSSS
B24: il10ra_site1_normal_mot_5fda0655e6834f3f331eaa9f580e88ed_0001_af2_000000239_0001_36_50_H_._HHH_b1_08295_0001_0000400016_0000002_0 (protein)
chain: SSSDEEEEERLREFVEELVEKYGLSEQVELELEAAVRLLLAAGVSEEFIKLALENAVRLKKSSSS

Each binder was assayed against il10ra, Q13651 (assay: yeast display titration).

Apparent Kd, inactive:
B1 no binding seen, B2 no binding seen, B3 no binding seen, B4 no binding seen, B5 no binding seen, B6 no binding seen, B7 no binding seen, B8 no binding seen, B9 no binding seen, B10 no binding seen, B11 no binding seen, B12 no binding seen, B13 no binding seen, B14 no binding seen, B15 no binding seen, B16 no binding seen, B17 no binding seen, B18 no binding seen, B19 no binding seen, B20 no binding seen, B21 no binding seen, B22 no binding seen, B23 no binding seen, B24 no binding seen
